Where a name gives a salt, the structure may show the parent alone. Some of the results follow. This is a noisy data set.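 Optical density at 600 nm measured yeast growth. Because the two-hybrid strains grew without histidine, growth required Pex3–Pex19 binding. Trypanosome selectivity meant a compound inhibited the trypanosome-pair strain's growth by more than 65% but the human-pair strain's by less than 65%.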
tested on: Saccharomyces cerevisiae HF7c pdr5Δ; assay: general growth inhibition of yeast HF7c pdr5Δ in -Leu -Trp medium, relative to DMSO; higher = stronger general growth inhibition; details: 100 µM; 24 h

SMILES	general growth inhibition
O=C(O)C=C1CCCc2ccccc2C1O (stereo unspecified)	54.6%
Cn1c(=O)c(-c2c(Cl)cccc2Cl)cc2cnc(Nc3ccc(N4CCOCC4)cc3)nc21	50.7%
O=c1cc(O)cc(/C=C/c2ccc(O)c(O)c2)o1 [Hispidin]	7.12%
CCc1c(C)[nH]c2c1C(=O)C(CN1CCOCC1)CC2 (stereo unspecified) [Molindone hydrochloride]	44.3%

tested on: human PEX3-PEX19 interaction (yeast two-hybrid); assay: growth inhibition of yeast two-hybrid strain reporting HsPex3-HsPex19 interaction, relative to DMSO; higher = stronger inhibition of human Pex3-Pex19 interaction / growth; details: 100 µM; 24 h; 3-aminotriazole 10 mM

SMILES	growth inhibition
CC(=O)OC(C)C[N+](C)(C)C (stereo not drawn) [Acetyl-beta-methylcholine chloride]	47.1%
CCn1nc(C(=O)O)c(=O)c2cc3c(cc21)OCO3 [Cinoxacin]	33.5%
CN1CCC[C@@H]1Cc1c[nH]c2ccc(CCS(=O)(=O)c3ccccc3)cc12 [Eletriptan hydrobromide]	5.56%
COc1ccc2c(c1)CC[C@@H]1[C@@H]2CC[C@]2(C)[C@@H](NCCCCCCN3C(=O)CCC3=O)CC[C@@H]12	28.9%
CO[C@@]1(NC(=O)CSCC#N)C(=O)N2C(C(=O)O)=C(CSc3nnnn3C)CS[C@@H]21 [Cefmetazole sodium]	45.9%
CC(=O)N[C@@H](Cc1c[nH]c2ccccc12)C(=O)OCc1cc(C(F)(F)F)cc(C(F)(F)F)c1	43.4%
NS(=O)(=O)c1ccc(-n2nc(C(F)(F)F)cc2-c2ccc(Cl)cc2)cc1	57.8%
O=c1c(O)c(-c2cc(O)c(O)c(O)c2)oc2cc(O)cc(O)c12 [Myricetin]	42.7%
CN1[C@@H](CC(=O)c2ccccc2)CCC[C@H]1C[C@H](O)c1ccccc1 [alpha-Lobeline hydrochloride]	43%
OC(CCN1CCCCC1)(c1ccccc1)C1CC2C=CC1C2 (stereo unspecified) [Biperiden hydrochloride]	19.7%
C[C@]12CC[C@@H]3c4ccc(O)cc4CC[C@H]3[C@@H]1CC[C@@H]2O [beta-Estradiol]	32.1%
CC1=C(C(=O)O)N2C(=O)[C@@H](NC(=O)[C@H](N)c3ccccc3)[C@H]2SC1 [Cephalexin hydrate]	34.1%
CC(C)(C)[C@]1(O)CCN2C[C@H]3c4ccccc4CCc4cccc(c43)[C@@H]2C1 (racemic) [(±)-Butaclamol hydrochloride]	46%
O=c1c2ccccc2nc2n1CCc1c-2[nH]c2ccccc12 [Rutaecarpine]	20.7%
Fc1ccc([C@@H]2CCNC[C@H]2COc2ccc3c(c2)OCO3)cc1 [Paroxetine hydrochloride hemihydrate (MW = 374.83)]	38.2%
NCCSSCCN [Cystamine dihydrochloride]	41.6%

SMILES	growth inhibition
Nc1nc2ccc(Cl)cc2c2nc(-c3ccco3)nn12	27.4%
N=C(N)N1CCc2ccccc2C1 [Debrisoquin sulfate]	19.9%
CC(CCc1ccc(O)cc1)NCCc1ccc(O)c(O)c1 (stereo unspecified) [Dobutamine hydrochloride]	53.8%
O=c1n(CCCN2CCN(c3cccc(Cl)c3)CC2)nc2ccccn12 [Trazodone hydrochloride]	44.6%
O=C(O)/C=C/c1cnc[nH]1 [4-Imidazoleacrylic acid]	45.5%
COc1cccc2c1[C@@H]1CN(CCCCn3c(=O)[nH]c4c(sc5ncc(-c6ccccc6)nc54)c3=O)C[C@@H]1CO2 [Fiduxosin hydrochloride]	79.8%
COc1ccc(/C=C2\COc3ccc(C)cc3C2=O)cc1O	30.2%
CC(C)Cc1ccc(C(C)C(=O)O)cc1 (racemic) [(±)-Ibuprofen]	69.1%
C[N+](C)(C)CCOC(=O)CCC(=O)OCC[N+](C)(C)C [Succinylcholine chloride]	51.3%
Cc1ccc(Cl)c(Nc2ccccc2C(=O)O)c1Cl [Meclofenamic acid sodium]	-5.64%
O=C(CCCN1CCC(O)(c2cccc(C(F)(F)F)c2)CC1)c1ccc(F)cc1 [Trifluperidol hydrochloride]	36%
Nc1ccn([C@@H]2O[C@H](CO)[C@@H](O)C2(F)F)c(=O)n1 [Gemcitabine hydrochloride]	46.1%
C[C@@H](c1ncncc1F)[C@](O)(Cn1cncn1)c1ccc(F)cc1F [Voriconazole]	79.7%
COc1cccc(OC)c1-c1cc(C(=O)NC2(C(=O)O)C3CC4CC(C3)CC2C4)nn1-c1ccc(C(=O)N(C)CCCN(C)C)cc1C(C)C (stereo unspecified)	9.05%
Oc1cc(O)cc(/C=C/c2ccc(O)c(O)c2)c1 [Piceatannol]	47.7%
CN1CCC[C@@H]1CCO[C@](C)(c1ccccc1)c1ccc(Cl)cc1 [Clemastine fumarate]	40%

Ordered by SMILES length (smallest number first): three of the compounds above.
SMILES	growth inhibition
N=C(N)N1CCc2ccccc2C1 [Debrisoquin sulfate]	19.9%
O=c1c(O)c(-c2cc(O)c(O)c(O)c2)oc2cc(O)cc(O)c12 [Myricetin]	42.7%
C[C@@H](c1ncncc1F)[C@](O)(Cn1cncn1)c1ccc(F)cc1F [Voriconazole]	79.7%
